In PubChem BioAssay AID2685 (National Center for Advancing Translational Sciences (NCATS), 2010):
Some of the results follow. Further columns of the screen follow, without active or inactive calls. The list favours compounds with an active or inconclusive main result. Words in brackets tell the shape of the fitted curve; partial curves, single points and poor fits give uncertain potencies. Where a SMILES comes first, the peptide text is derived from it. The star is where a group is joined. OBn = c1ccc(CO*)cc1

Assay: qHTS Assay for Lipid Storage Modulators in Drosophila S3 Cells;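 on cell number change: cells counted by Cell Tracker Red CMTPX staining in the red channel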
Details: BODIPY lipid droplet fluorescence, 18-24 h; for cell number change: measured here: cell count max response, cells fed with added oleic acid
How it was run: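 Drosophila S3 cells got compounds at several concentrations plus oleic acid (400 uM solution). Laser-scanning cytometry with 488 nm excitation read lipid droplets at 500-530 nm and cells at 575-640 nm. Percent activity was relative to 20 uM Triacsin C.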

[1] = measured here: cell number channel AC50, cells fed with added oleic acid
[2] = measured here: lipid fluorescence (Fed channel) AC50, cells fed with added oleic acid

SMILES	cell number change [%]	AC50 [1]	AC50 [2]
CCC(C)C(NC(=O)C(N)CC(C)C)C(=O)NC(CCC(=O)OCc1ccccc1)C(N)=O (stereo not drawn) (H-Leu-Ile-Glu(OBn)-NH2; configuration not given here)	-14.3	0.00517 µM [falling, full curve, poor fit]	6.51 µM [falling, single point]
CCOc1ccccc1C(=O)NCC(=O)OCc1c(C)noc1C	19.8		7.31 µM [rising, partial curve]
Cc1cccc(C(=O)N2CCN=C2SCc2ccc([N+](=O)[O-])cc2)c1	63.4		
O=C(NCc1ccc(N2CCCC2=O)cc1)c1cn(Cc2ccccc2)nn1	7.98		
OCC1(Cc2ccc(Cl)cc2)CCN(Cc2ccc(Oc3ncccn3)cc2)CC1	25.7	0.517 µM [rising, full curve]	
CCN(CC)C(=S)Nc1ccc(OC)cc1	-12		
C#CCOCCOCCOCCNc1nc(N2CCN(C(=O)Cn3cc(CCCCN)nn3)CC2)nc(N2CCN(C(=O)[C@H]([C@@H](C)CC)n3cc(CCCN=C(N)N)nn3)CC2)n1	-25		0.82 µM [rising, full curve]
COC(=O)c1ccccc1Sc1ncnc2onc(C)c12		0.164 µM [rising, full curve]	0.164 µM [rising, full curve, poor fit]
CCN(CC)S(=O)(=O)c1ccc(NC(=S)NC(=O)C2CCC2)cc1	-14.4		29.1 µM [rising, single point]
O=[N+]([O-])c1ccc(-n2nnnc2CN2CCCCC2)cc1	7.67	0.82 µM [rising, single point]	
O=C(NCCc1ccccc1)c1cc(=O)[nH]c2ccccc12			2.59 µM [rising, single point]
CC(C)CN1C(=O)C(=O)N(CC(=O)N2CCC(Cc3ccccc3)CC2)C1=O		0.461 µM [falling, single point]	
CC(=O)NCc1ccc(S(=O)(=O)N/N=C/c2ccccc2)cc1	-18.6		3.26 µM [falling, partial curve]
COc1ccc(C(C)=O)cc1CSc1nnc2c(Cl)cc(Cl)cn12	3.76		0.0461 µM [rising, full curve, poor fit]
CC(C)(C)C(=O)Nc1ccnn1C1CCN(C(=O)c2ccc(Cl)cc2F)CC1	1.65		18.4 µM [falling, single point]
C=CCNC(=S)NNc1nc(Nc2ccccc2)nc(N2CCCCC2)n1	-12.1		0.13 µM [falling, full curve, poor fit]
CC(=O)c1cccc(NC(=O)CC2S/C(=N/N=C3CCCCCC3)NC2=O)c1 (stereo unspecified)			29.1 µM [falling, single point]
Cc1[nH]n(-c2ccccc2)c(=O)c1/C=C1\C=NN=C1c1ccccc1	-33.3	14.6 µM [falling, single point]	29.1 µM [falling, single point]
CC1CCCC(NC(=O)NC(=O)CCl)C1C (stereo unspecified)	-49	16.4 µM [falling, single point]	29.1 µM [falling, single point]

SMILES	cell number change [%]	AC50 [1]	AC50 [2]
CC(C(=O)Nc1ccc2c(c1)OCO2)N(c1ccc(Cl)cc1)S(C)(=O)=O (stereo unspecified)	-6.61		
Cc1ccc(NC(=O)c2cnc(SCC(=O)NCC3CCCO3)n(C)c2=O)cc1 (stereo unspecified)	-35.6	25.9 µM [falling, single point]	
CCOC(=O)N1CCN(S(=O)(=O)c2ccc(C(=O)Nc3sc4c(c3C(N)=O)CCN(CC)C4)cc2)CC1	15.3		18.4 µM [rising, single point]
CN=C1S/C(=C\c2ccc(OCC(=O)OC)c(OC)c2)C(=O)N1C	-7.62		
Cc1cc(C(=O)NC(C)Cc2ccccc2)cc(C)c1[N+](=O)[O-] (stereo unspecified)	42.1	4.61 µM [rising, partial curve, poor fit]	1.16 µM [rising, full curve, poor fit]
O=C(CN1CCCCC1)Nc1c2c(nc3ccccc13)N(c1ccccc1)CC2	-33		
Cn1c(CSCc2ccccc2)nnc1SCC(=O)Nc1nccs1	-16.9		20.6 µM [falling, single point]
COc1c(C)cc(C(=O)C2CCCN(C(=O)C3=C(C)OCCO3)C2)cc1C (stereo unspecified)	-42.1	23.1 µM [falling, single point]	14.6 µM [falling, partial curve]
CCn1c(C)cc2c(c1=O)C(c1ccncc1)C(C#N)=C(N)O2 (stereo unspecified)	7.45		0.82 µM [falling, full curve]
COc1ccc(S(=O)(=O)NCCC(=O)NCc2ccc(F)cc2)cc1	117	5.17 µM [falling, partial curve]	3.26 µM [falling, single point]
CCOC(=O)NC(=O)CSc1nnnn1-c1ccccc1	2.29		
O=C(COC(=O)/C=C/c1ccccc1Cl)NCCc1ccc(Cl)cc1Cl			18.4 µM [falling, single point]
CCc1ccccc1Nc1nc(N)nc(COC(=O)c2c(C)noc2C)n1	31.7	0.326 µM [rising, full curve, poor fit]	0.00517 µM [falling, full curve, poor fit]
COCc1cc(CN2CCCC2)c(O)c2ncccc12	-62.1	20.6 µM [falling, single point]	29.1 µM [falling, single point]
O=C(NCc1cccc(CNC(=O)c2ccco2)c1)c1ccco1	3.13		0.58 µM [rising, single point]
COc1ccc(CN2C(=O)C(Cc3ccccc3)Nc3ncnc(N4CCOCC4)c32)cc1 (stereo unspecified)	16.1		23.1 µM [rising, single point]
Cc1cccc(Cn2c(O)c(N=NC(=S)Nc3ccccc3F)c3ccccc32)c1	-44.5	18.4 µM [falling, single point]	14.6 µM [falling, partial curve]
O=C(COC(=O)/C=C/c1ccccc1[N+](=O)[O-])Nc1ccc(OC(F)F)cc1	13.8		

As entered above:
CC(C(=O)Nc1ccc2c(c1)OCO2)N(c1ccc(Cl)cc1)S(C)(=O)=O (stereo unspecified) | cell number change [%]: -6.61
Cc1ccc(NC(=O)c2cnc(SCC(=O)NCC3CCCO3)n(C)c2=O)cc1 (stereo unspecified) | cell number change [%]: -35.6
